From PubChem BioAssay AID192 (DTP/NCI, 2004)
The list does not hold the whole screen: it is rich in T/C values a quarter to a half above the control, in often repeated tests (any T/C) and in doses without a T/C. Further doses and runs are listed elsewhere. T/C: endpoint of the treated group in % of that of the vehicle group. Some entries give survivors of the animals treated and no T/C: the source files T/C as zero there, which appears to mark a toxic dose or a test without result, not a measured value. Some doses without a T/C left all or most animals alive at the check, yet need not have been tolerated: the source hardly ever lists a survival T/C far under the control, and the zero likely stands for such cases as well. Counts of survivors are from the toxicity check (mostly the fifth day) where no day follows; animals may have died later. Schedules are NCI's codes, taken here to give the interval after Q, in days (D) or hours (H), and the number of doses after X. Some entries hold several experiments; the results are listed from low to high. Where survival is the endpoint, the PubChem record calls one and a half times the control and up active, and a quarter to a half above the control has no call in these data; cut-offs in other NCI protocols can differ. Additions like (4×) give the number of equal values in this list. Some T/C values carry the count of animals alive at the toxicity check (mostly the fifth day); where none is given, no animal had died by that day.

System: BDF1 mice, B16 melanoma ip, median survival T/C
Assay: NCI In Vivo Anticancer Drug Screen. Data for tumor model B16 Melanoma (intraperitoneal) in B6D2F1 (BDF1) mice
Details: T/C endpoint: median survival time, schedule: Q01DX009 (ip), higher T/C = longer survival
Method in brief: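 Compounds were tested in mice carrying transplantable tumors. Survival or tumor size was recorded, and each value is the treated-group measurement (T) divided by that of the vehicle-treated control group (C).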

[1] = dose: 0.5 mg/kg/injection, vehicle: saline
[2] = dose: 100.0 mg/kg/injection, vehicle: Klucel (hydroxypropylcellulose) (HPC)
[3] = dose: 400.0 mg/kg/injection, vehicle: Klucel (hydroxypropylcellulose) (HPC)
[4] = dose: 100.0 mg/kg/injection, vehicle: saline
[5] = dose: 400.0 mg/kg/injection, vehicle: saline
[6] = dose: 800.0 mg/kg/injection, vehicle: saline

CC(=O)OC1C(=O)C(O)C(C)OC1O[C@@H]1C[C@@]2(C)[C@@H]3CC=C4[C@@H](C[C@H](O)C(=O)C4(C)C)[C@]3(C)C(=O)C[C@]2(C)[C@H]1[C@@](C)(O)C(=O)/C=C/C(C)(C)O (stereo partly specified)
survivor count [1]: 6 of 6 | survivor count (dose: 4.0 mg/kg/injection, vehicle: saline): 3 of 6

Brc1cc(Br)cc(-c2nnc(-c3cccc4ccccc34)o2)c1
survivor count [2]: 10 of 10 | survivor count [3]: 9 of 10

C=C1C(=O)OC2CC1C(OC(=O)/C=C/c1ccccc1)C/C(C)=C/CC/C(C)=C/CCC2(C)O (stereo unspecified)
survivor count [2]: 7 of 10

Nc1n[nH]c(N)n1
T/C [4]: 91, 95 [5 of 6 alive], 96, 97 (4×), 100 (4×), 104, 105, 106 (2×), 107, 110, 111 (2×), 113 (2×), 113 [5 of 6 alive], 115, 116 % of control | survivor count [4]: 6 of 6 | T/C (dose: 200.0 mg/kg/injection, vehicle: saline with Tween-80): 126 % of control | T/C (dose: 200.0 mg/kg/injection, vehicle: saline): 95, 97 (2×), 99, 102 (4×), 104, 105 (2×), 106, 107, 108, 109, 110, 112, 113 (3×), 113 [5 of 6 alive] (2×), 117, 120, 123 % of control (2×) | T/C (dose: 400.0 mg/kg/injection, vehicle: saline with Tween-80, evaluated on day 45): 95 and 102 % of control | T/C (dose: 400.0 mg/kg/injection, vehicle: saline with Tween-80, evaluated on day 60): 102 and 126 % of control | T/C [5]: 88, 93, 97 (2×), 100 (4×), 102 (2×), 102 [5 of 6 alive], 103, 105 (2×), 107, 108, 109, 110 (3×), 110 [5 of 6 alive], 113, 123, 155, 166 % of control [5 of 6 alive] | survivor count [5]: 6 of 6 | T/C (dose: 800.0 mg/kg/injection, vehicle: saline with Tween-80, evaluated on day 45): 100 % of control (2×) | T/C (dose: 800.0 mg/kg/injection, vehicle: saline with Tween-80, evaluated on day 60): 100 and 130 % of control | T/C [6]: 90, 91, 92 (2×), 93, 93 [5 of 6 alive], 97, 100 (2×), 102 [4 of 6 alive], 103, 105, 108 [9 of 10 alive], 109, 111, 112, 113, 116 (2×), 117 (2×), 128, 133, 139 % of control | survivor count [6]: 6 of 6

CC[C@](C)(O)C(=O)O[C@H]1C(=O)O[C@@H]2C[C@H]3C(C)=CC(=O)[C@@H](O)[C@]3(C)[C@H]3[C@@]4(O)OC[C@]32[C@@H]1[C@@H](C)[C@H]4O
T/C (dose: 0.12 mg/kg/injection, vehicle: saline): 130 and 143 % of control | T/C (dose: 0.25 mg/kg/injection, vehicle: saline): 136 % of control | T/C [1]: 130 % of control [7 of 10 alive] | T/C (dose: 0.5 mg/kg/injection, vehicle: steroid suspending solution): 141 % of control | T/C (dose: 1.0 mg/kg/injection, vehicle: Klucel (hydroxypropylcellulose) (HPC)): 132 % of control | survivor count (dose: 1.0 mg/kg/injection, vehicle: saline): 3 of 10 and 6 of 10 | survivor count (dose: 2.0 mg/kg/injection, vehicle: steroid suspending solution): 2 of 10 | T/C (dose: 1000.0 micrograms/kg/injection, vehicle: saline with Tween-80): 138 % of control

Clc1cc(CBr)c(Cl)c(Cl)c1CBr
survivor count (dose: 6.25 mg/kg/injection, vehicle: Klucel (hydroxypropylcellulose) (HPC)): 10 of 10 | survivor count (dose: 12.5 mg/kg/injection, vehicle: Klucel (hydroxypropylcellulose) (HPC)): 8 of 10 | survivor count (dose: 25.0 mg/kg/injection, vehicle: Klucel (hydroxypropylcellulose) (HPC)): 10 of 10 | survivor count (dose: 50.0 mg/kg/injection, vehicle: Klucel (hydroxypropylcellulose) (HPC)): 0 of 10

C(=N\Nc1nn[nH]n1)/c1ccncc1
survivor count [3]: 7 of 10

Clc1ccc2sc3c(c2c1)CCNC3
survivor count (dose: 200.0 mg/kg/injection, vehicle: Klucel (hydroxypropylcellulose) (HPC)): 0 of 10
